Here are results for one substance from article PMC3145648.

Results are given in words; binding and its absence hold for the method and conditions named. Binding seen in cells or lysates may run through a third protein. Some entries that bind do so weakly or less than the wild type. Sequences can lack the tags named with a protein.

For this assay, the target named is T1, MYC-HSP47 (mouse HSP47 with a MYC epitope before the RDEL sequence) (mouse) (UniProt P19324).
T1 sequence: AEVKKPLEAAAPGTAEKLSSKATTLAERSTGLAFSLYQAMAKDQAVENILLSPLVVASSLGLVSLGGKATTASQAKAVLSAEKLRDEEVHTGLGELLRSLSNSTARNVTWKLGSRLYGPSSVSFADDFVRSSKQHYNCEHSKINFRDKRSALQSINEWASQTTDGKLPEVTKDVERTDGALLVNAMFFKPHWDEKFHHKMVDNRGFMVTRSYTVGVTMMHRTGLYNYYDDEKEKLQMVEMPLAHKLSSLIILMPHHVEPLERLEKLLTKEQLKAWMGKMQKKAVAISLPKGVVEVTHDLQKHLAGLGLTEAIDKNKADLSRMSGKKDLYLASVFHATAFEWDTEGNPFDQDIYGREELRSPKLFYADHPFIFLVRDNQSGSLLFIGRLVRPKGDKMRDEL
The assay is described as follows: co-IP; lysates of HEK293T cells co-transfected with YFP-APP695 and MYC-HSP47; precipitated with anti-MYC antibodies and protein-G-sepharose overnight at 4°C, blotted with anti-GFP; lysis buffer 1% TritonX-100, 120 mM sodium chloride, 50 mM Tris-HCl pH 7.5.

In the case of “YFP-tagged APP (YFP-APP695) (from UniProt P05067-4 18-695)”, the binding result is on record as “binds”.
